Source: patent US20030162759A1, “Aldosterone blocker therapy to prevent or treat inflammation-related disorders” (priority 2000, published 2003)

Tested on: aldosterone + salt treated rats
Assay: Assay C further aldosterone infusion study: body weight, ventricle weights, tibia length (myocardial hypertrophy)
Assay type: in vivo, rat
From the text: Assay C: Further in vivo Aldosterone Infusion Study The procedure of Assay B was expanded upon in a further study. […] Myocardial tissue from animals in each treatment group was examined after 7, 14, or 30 days of treatment. […] Lesions were preceded by the expression and progressive upregulation of proinflammatory molecules. […] Male Sprague-Dawley rats, weighing 230 to 250 g, (Harlan Sprague-Dawley Industries, Indianapolis, Ind.) were housed in a room 12-hours light/12-hours dark daily cycle at an ambient temperature of 22±1° C. (n=96). Animals were allowed one week to adjust after arrival and had free access to TEKLAD 22/5 rodent diet (Harlan TEKLAD, Madison, Wis.) and tap water until the initiation of the experiment. Prior to surgery the animals were individually weighed and placed in one of the following groups: […] Potassium chloride supplementation was added to the saline solution in order to prevent the potential hypokalemia associated with aldosterone excess. […] Louis, Mo.) was inserted subcutaneously at the nape of the neck. Aldosterone was administered at a dose of […]. […] Animals were sacrificed from each group (n=8-13) after 7, 14, or 30 days of treatment. Animals to be sacrificed after 7 or 14 days of treatment were uninephrectomized and implanted with an Alzet minipump. Animals treated for 30 days were uninephrectomized, fitted for Alzet minipumps, and implanted with radio telemetry units (model#TA11PA-C40, Data Sciences Inc., St. Paul, Minn.) according to the following procedure. […] The surgery site was clipped, scrubbed with nolvasan, and sprayed with betadine. A rostral-caudal incision was made through the skin from the base of the rib cage to the pubic region using a #11 scalpel blade. A second incision was made through the muscles of the abdominal wall to expose the peritoneal cavity. […] Organs were carefully displaced with tissue retractors in order to expose the abdominal aorta. […]

Question: How did the “Final Body Weight” value (Table 9.12, 14-day protocol, group Mean) turn out when `C[C@]12CCC(=O)C=C1CC[C@@H]1[C@@H]2[C@@H](O)C[C@]2(C=O)[C@@H](C(=O)CO)CC[C@@H]12` [aldosterone] was run?
Answer: 270 g

Question: And the “Final Body Weight” value (Table 9.12, 14-day protocol, individual rats, listed as Aldosterone + salt)?
Answer: 290 g

Question: And the “Final Body Weight” value (Table 9.13, 30-day protocol, eplerenone 100 mg/kg/day, individual rats, listed as Aldosterone + salt)?
Answer: 290 g
